Measured values from PubChem BioAssay AID2685 (National Center for Advancing Translational Sciences (NCATS), 2010).
The other results are listed elsewhere or left out. Further columns of the screen follow, without active or inactive calls. Most of these compounds were active or inconclusive in the main read-out, so they are no random draw. The note in brackets gives the kind of curve behind each potency; many fits are weak.

Assay: qHTS Assay for Lipid Storage Modulators in Drosophila S3 Cells;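 for cell number change: cells counted by Cell Tracker Red CMTPX staining in the red channel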
Conditions: BODIPY lipid droplet fluorescence, 18-24 h; for cell number change: measured here: cell count max response, cells fed with added oleic acid
Procedure, shortened: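 Drosophila S3 cells loaded with oleic acid (400 uM, as added) and compounds at several concentrations; lipid droplets imaged by 488-nm laser-scanning cytometry, 500–530 nm intensity and object ratio to cell channel. Percent activity normalized to 20 uM Triacsin C.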

[1] = measured here: cell number channel AC50, cells fed with added oleic acid
[2] = measured here: lipid fluorescence (Fed channel) AC50, cells fed with added oleic acid

| Compound | cell number change [%] | AC50 [1] | AC50 [2] |
| --- | --- | --- | --- |
| O=c1cc(O)n(-c2ccccc2F)c(=S)[nH]1 | 37.1 | 16.4 µM [rising, partial curve, poor fit] | 16.4 µM [falling, partial curve] |
| Cn1c(=O)c(=O)n(C)c2cc(S(=O)(=O)N3CCCC3C(=O)NCc3cccs3)ccc21 (configuration not stated) | -5.23 | 0.651 µM [falling, full curve, poor fit] | 3.26 µM [falling, partial curve] |
| O=C(Nc1nccs1)c1cccc(N2C(=O)C3C4C=CC(C4)C3C2=O)c1 (configuration not stated) | 4 |  | 0.116 µM [rising, full curve, poor fit] |
| C=C(C)Cn1c(=O)c2c(nc3n2CCCN3CCc2ccccc2)n(C)c1=O | -8.87 |  | 23.1 µM [falling, single point] |
| COc1cc2c(cc1OC)CN(CC(=O)Nc1ccc3c(c1)OC(F)(F)O3)CC2 | 47.8 | 29.1 µM [rising, single point] |  |
| COc1ccccc1N1CCN(C(=O)C(CC(C)C)NC(=O)C2CCCCC2)CC1 (configuration not stated) | 8.26 |  | 0.58 µM [falling, single point] |
| Cc1ccccc1NS(=O)(=O)c1ccc(C(=O)NCC(C)(C)N2CCOCC2)cc1 | -21.6 |  | 6.51 µM [rising, partial curve, poor fit] |
| Cc1ccc(N(CCC#N)C(=O)CSc2ccc3c(c2)OCCO3)cc1 | 52.6 | 29.1 µM [rising, single point] |  |
| Cc1cc(C)c(S(=O)(=O)N2CCCCC2)c(C)c1N(C)S(=O)(=O)c1ccccc1 | -13.9 |  | 8.2 µM [falling, single point] |
| Cc1oc(-c2ccccc2)nc1C(=O)OCC(=O)NCc1ccc(Cl)cc1 | -41.8 | 20.6 µM [falling, partial curve] | 1.03 µM [rising, full curve, poor fit] |
| O=C1c2ccccc2C(=O)N1CCc1nn[nH]n1 | -28.6 |  | 0.411 µM [falling, full curve] |
| COCc1c(C(=O)Nc2nc(C)cs2)oc2ccccc12 |  |  | 29.1 µM [rising, partial curve] |
| COc1ccc(N(C(=O)C(C)C)S(=O)(=O)c2ccc3c(c2)n(C)c(=O)n3C)cc1 | 43 | 0.58 µM [rising, full curve] | 1.16 µM [rising, partial curve, poor fit] |
| Cc1cc(C(=O)OCCO)c(C#N)c(N)n1 | -2.35 |  | 2.06 µM [falling, partial curve] |
| COc1ccc(-c2cc(-c3ccccc3)nc(SC(C)C(=O)O)c2C#N)cc1 (configuration not stated) | -42 | 5.8 µM [falling, partial curve] |  |
| COC(=O)c1ccccc1NC1=C/C(=N\S(=O)(=O)c2ccc(C(=O)O)cc2)c2ccccc2C1=O | -16.2 |  | 6.51 µM [rising, single point] |
| COc1ccccc1N(C(=O)c1ccco1)C(C(=O)NC1CCCC1)c1cccs1 (configuration not stated) | 7.69 |  |  |
| COCCNC(=O)C(c1ccc(C)o1)N(C(=O)c1snc(C(N)=O)c1N)c1ccc(C)cc1 (configuration not stated) | -38.9 | 2.31 µM [falling, partial curve] |  |
| CCc1ccccc1OCC(=O)Nc1ccc(N2CCCC2)cc1C | 85.5 | 5.17 µM [rising, full curve] |  |
| Cc1cccc2c(CC(=O)Nc3ccccc3)noc12 | 12.5 |  | 6.51 µM [rising, single point] |

Ordered by molecular weight (low to high): part of the list above

| Compound | cell number change [%] | AC50 [1] | AC50 [2] |
| --- | --- | --- | --- |
| CCc1ccccc1OCC(=O)Nc1ccc(N2CCCC2)cc1C | 85.5 | 5.17 µM [rising, full curve] |  |
| O=C(Nc1nccs1)c1cccc(N2C(=O)C3C4C=CC(C4)C3C2=O)c1 (configuration not stated) | 4 |  | 0.116 µM [rising, full curve, poor fit] |
| COCCNC(=O)C(c1ccc(C)o1)N(C(=O)c1snc(C(N)=O)c1N)c1ccc(C)cc1 (configuration not stated) | -38.9 | 2.31 µM [falling, partial curve] |  |

Remaining list, next part.

| Compound | cell number change [%] | AC50 [1] | AC50 [2] |
| --- | --- | --- | --- |
| Cn1c(SCC(=O)NC(C)(C)C)nnc1-c1ccc(C(C)(C)C)cc1 | -44.5 | 11.6 µM [falling, partial curve] | 18.4 µM [falling, partial curve] |
| COc1ccc(Cc2nnc(SCC(=O)N(C)c3ccccc3)o2)cc1 |  |  | 2.91 µM [rising, full curve, poor fit] |
| N/C(=N\OC(=O)c1cc(Br)ccc1Cl)c1ccccn1 | 33.4 | 29.1 µM [rising, single point] |  |
| CCC1=C/C(=C/N(C)c2ccccc2)C(=O)S1 | 4.58 |  | 0.103 µM [falling, full curve, poor fit] |
| CCOc1ccc(N2CC(C(=O)Nc3ccccc3N3CCCC3)CC2=O)cc1 (configuration not stated) | 31 | 9.2 µM [rising, partial curve, poor fit] | 9.2 µM [rising, partial curve] |
| COc1ccc(S(=O)(=O)N(C)Cc2ccc3c(c2)OCCO3)cc1 | 1.17 |  | 14.6 µM [rising, partial curve, poor fit] |
| O=Cc1ccccc1-n1cncn1 | 5.85 | 0.366 µM [falling, single point] | 2.31 µM [falling, single point] |
| CCCCOc1ccc2ccccc2c1C=O |  | 2.06 µM [rising, single point] |  |
| CCCn1c(SCC(=O)Nc2ccc(Cl)cc2)n[nH]c1=O | -2.28 | 6.51 µM [rising, single point] |  |
| COC(=O)/C=C1/S/C(=N/NC(=O)c2ccc(OC)cc2)NC1=O | 3.36 |  |  |
| S=C1NC2(CCS1)Oc1ccccc1C1CC(c3ccccc3)=NN12 (configuration not stated) | 5.56 |  |  |
| CN(C)CCCN(C(=O)c1ccc(S(=O)(=O)N2CCCCCC2)cc1)c1nc2cc3c(cc2s1)OCCO3 | 41.1 | 7.31 µM [rising, partial curve, poor fit] |  |
| CC1CCCCN1CCNC(=O)c1ccc2c(=O)n(CCc3ccccc3)c(=O)[nH]c2c1 (configuration not stated) | 22.6 |  |  |
| CNC(=S)N(CCc1c(C)[nH]c2ccc(Cl)cc12)Cc1cccs1 | 14.6 |  |  |
| Oc1[nH]c2ccccc2c1/C=N/N1CCCCC1 | -25 |  | 29.1 µM [falling, single point] |
| O=C(CNC(=O)c1ccccc1Br)N/N=C/c1ccco1 | 45.8 | 0.366 µM [rising, full curve] | 29.1 µM [falling, single point] |
| CC(C)(CNC(=O)c1ccc(S(=O)(=O)Nc2ccc(Cl)cc2)cc1)N1CCOCC1 | -16.2 |  | 0.651 µM [falling, single point] |
| Cc1noc(NS(=O)(=O)c2ccc(NC(=O)c3ccc(N4C(=O)c5ccccc5C4=O)cc3)cc2)c1C | -14.9 | 0.291 µM [falling, partial curve, poor fit] |  |
| O=C(CN(C(=O)CNC(=O)c1ccco1)c1ccc2c(c1)OCCO2)NC1CCCCC1 | 34 | 29.1 µM [rising, partial curve, poor fit] |  |
| O=C(C1CCN(S(=O)(=O)c2cccnc2)CC1)N1CCN(C2CCCC2)CC1 | -16.4 |  | 0.291 µM [falling, full curve, poor fit] |

| Compound | cell number change [%] | AC50 [1] | AC50 [2] |
| --- | --- | --- | --- |
| O=C(C1CCC1)N1CCN(c2cccc(C(F)(F)F)c2)CC1 | -6.91 |  | 29.1 µM [falling, single point] |
| O=C1CCCC2=C1C1(CCCC1)N=C(Nc1nc3ccccc3o1)N2 | -11.8 |  | 1.03 µM [rising, single point] |
| CCOc1ccc(CCNC(=O)CSc2cc(=O)n(C)c3ccccc23)cc1OCC | -19.3 |  |  |
| O=C(c1ccc(Cl)c(S(=O)(=O)Nc2ccc(F)cc2)c1)N1CCN(c2ccccn2)CC1 | -35.3 | 11.6 µM [falling, partial curve] | 14.6 µM [falling, partial curve] |
| COc1ccc(CCN(C)C(=O)c2cc(S(=O)(=O)N3CCCCC3)ccc2Cl)cc1OC | -16.7 |  | 6.51 µM [rising, single point] |
| CN(C)CCNC(=O)c1cc2c(s1)-c1ccc(Cl)cc1SC2 | -97.2 | 29.1 µM [falling, single point] | 20.6 µM [falling, single point] |
| CC(=O)Nc1ccc(S(=O)(=O)N2CCc3c(Cl)cccc3C2)cc1 | 2.17 |  |  |
| CCC1Oc2ccccc2N(CC(=O)NCCCN2CCN(CC)CC2)C1=O (configuration not stated) |  |  | 1.64 µM [rising, full curve, poor fit] |
| O=c1[nH]c(C2CCN(S(=O)(=O)/C=C/c3ccccc3)CC2)nc2c1nnn2Cc1ccccc1 | -1.32 |  |  |
| CCOc1c(CNCCNC(=O)c2nonc2N)cccc1OC | 7.32 |  |  |
| CCN(CC)S(=O)(=O)c1ccc2[nH]c(=O)cc(C(=O)NCC(c3ccco3)N3CCCC3)c2c1 (configuration not stated) | -14 |  | 3.26 µM [falling, full curve, poor fit] |
| CCc1cc2cc(C)ccc2nc1SCC(=O)NNC(=O)c1ccco1 | 169 | 29.1 µM [rising, single point] |  |
| CCN(CC)c1ccc(/C=N/N2CCN(c3ccccc3OC)CC2)cc1 | -32.8 | 11.6 µM [falling, single point] | 29.1 µM [falling, single point] |
| N#Cc1c(N)nc2c(c1N)CC(CCl)O2 (configuration not stated) | 3.21 |  |  |
| CCCCOc1ccc(C(=O)N2CCN(c3ncccn3)CC2)cc1 | 23.4 |  | 2.91 µM [rising, full curve] |
| CCN1C(=S)SC(=O)C1=C1C=C(C)OC(C)=C1 | -0.506 |  | 0.00461 µM [falling, full curve, poor fit] |
| CC(=O)c1cn(C(=O)c2ccc(Cl)cc2)c2ccccc12 | -24.8 |  | 6.51 µM [falling, single point] |
| O=C1CC(NCc2ccc(F)cc2)C(=O)N1c1ccccc1 (configuration not stated) | 21.3 |  |  |
| Cc1cc(C)c(C(=O)O)c(CC(C)(C)C(=O)O)c1 | -39 | 29.1 µM [falling, single point] | 29.1 µM [falling, single point] |
| Cc1nn(-c2ccccc2)c2sc(C(=O)NC3CCCCC3)cc12 | -5.07 |  | 1.64 µM [rising, partial curve] |
